42 sequences from publication PMC7819943, “Rice protein-binding microarrays: a tool to detect cis-acting elements near promoter regions in rice” can be followed below.

By UniProt entry, the sequences of proteins in these tests, tags left out.
UniProt Q0JBA9, entry or part of it: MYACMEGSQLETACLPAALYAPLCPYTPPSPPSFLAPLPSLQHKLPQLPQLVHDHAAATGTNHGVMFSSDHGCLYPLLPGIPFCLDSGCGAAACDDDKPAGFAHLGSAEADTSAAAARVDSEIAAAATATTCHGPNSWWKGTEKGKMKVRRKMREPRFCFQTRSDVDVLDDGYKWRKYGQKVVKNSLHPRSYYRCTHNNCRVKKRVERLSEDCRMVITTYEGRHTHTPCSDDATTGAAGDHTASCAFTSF

Some of the results follow.

For this assay, the target named is OsWRKY34 (Oryza sativa, UniProt Q0JBA9 1-250). The experiment in a line: protein-binding microarray (RPBM); PBS, 2% BSA, 51.3 ng/ul salmon testes DNA, 50 uM zinc acetate, 200 nM TF, 25 C, 1 h; high values mean tight binding. As to conditions: protein: recombinant; tags: N-terminal polyhistidine and DsRed monomer fusion (pET32a); label: CyDye5-dUTP incorporated in the synthesized complementary strand; 3' TTTTT single-stranded linker to array surface; dsDNA, one strand shown. The method, boiled down: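 In PBS with 2% BSA, salmon testes DNA and 50 µM zinc acetate, 200 nM protein was incubated on a custom Agilent array at 25 °C for 1 h and then washed off. The array had been made double-stranded by primer extension with Cy5-dUTP and blocked with 2% BSA. The proteins were transcription factors fused N-terminally to polyhistidine and DsRed, expressed in E. coli BL21-CodonPlus and purified on Ni–NTA. The binding signal is per-feature fluorescence intensity (arbitrary units) from an Axon 4000B scanner.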
Regarding “ACCACATCCTTCTTCTTCCTGTCTCACGCCTCAAAAACTTCGGAGTCACCTAGTGCAG”, the binding signal was 15600 fluorescence intensity (a.u.).

In the case of “GTGCAGGTTTGGCCATAATCATTTTTTGCTGCTATATGTTCGGAGTCACCTAGTGCAG”, the binding signal was 8970 fluorescence intensity (a.u.).

For the sequence “ACTACTTTCTGCGAACTTCTGATCGACCATTGCAGAATCCCGGAGTCACCTAGTGCAG”, the binding signal is 8840 fluorescence intensity (a.u.).

For “TCAGATTTAAGCCAAGCATGTGTTATTGTATAATGGTTTCCGGAGTCACCTAGTGCAG”, the binding signal was 8790 fluorescence intensity (a.u.).

On to “TCTCTCCTATAGTGGTCATCAATTGTTTGTTTTGAGTAAACGGAGTCACCTAGTGCAG”, for which the binding signal is 11000 fluorescence intensity (a.u.).

Regarding “CACGTACTAACTGGCGGGGTTGTGTCATCTTGTCTATGGTCGGAGTCACCTAGTGCAG”, the binding signal was 8500 fluorescence intensity (a.u.).

Take “TCGATTTCCTCTTGTCTTATATCGCTCTCTTTTTCTCGGTCGGAGTCACCTAGTGCAG”: the binding signal is 9800 fluorescence intensity (a.u.).

In the case of “CTTTTTTGCAAAAAGTCAGGCCGCCATCAACACCATCTCGCGGAGTCACCTAGTGCAG”, the binding signal was 8590 fluorescence intensity (a.u.).

For “CCGGACTCCTCTCACCTGCTGCTTTCTTCTCATAAAGAACCGGAGTCACCTAGTGCAG”, the binding signal was 8660 fluorescence intensity (a.u.).

For the sequence “GCCGTTCGCCACCACGCCTACTTCGCCGGCTGCCCTCGCCCGGAGTCACCTAGTGCAG”, the binding signal was 9290 fluorescence intensity (a.u.).

For “CTATTTTCTTTTTCTTTCTTTCTTTCTTTTTCTTTGTATACGGAGTCACCTAGTGCAG”, the binding signal is 12100 fluorescence intensity (a.u.).

Take “CAGTTGTCTTCTATGATTTGTGTCTTCAATTAGCATCTACCGGAGTCACCTAGTGCAG”: the binding signal is 9350 fluorescence intensity (a.u.).

As to “CGAGGTATTTCAGTCCAATGCAGCAAAGATTCGTTTTTTCCGGAGTCACCTAGTGCAG”, the binding signal was 10100 fluorescence intensity (a.u.).

For “TGGGCTCTCTCTCTCTCTCTCTCTCTCGCCTCTCTATCTACGGAGTCACCTAGTGCAG”, the binding signal is 9550 fluorescence intensity (a.u.).

In the case of “TCGTTCTTCCTTTCTTCTTAAGACATCTCATGCATGACCTCGGAGTCACCTAGTGCAG”, the binding signal is 12600 fluorescence intensity (a.u.).

Take “TCACCCGGCCCATCTGCAACCCGTCGAGTCCAACCCGCCGCGGAGTCACCTAGTGCAG”: the binding signal is 11500 fluorescence intensity (a.u.).

For “GGACCTACCCCTATATATAGCACTCATGTTTGAGAGTAAACGGAGTCACCTAGTGCAG”, the binding signal was 9390 fluorescence intensity (a.u.).

Take “GGGTCTCAAGTTTAGCAGTCAATATGGCATTTTTCTATTTCGGAGTCACCTAGTGCAG”: the binding signal is 10100 fluorescence intensity (a.u.).

As for “GTCCACAGTTTCTCTCTCTTCTCTTCTCTTCTCTCTCTCACGGAGTCACCTAGTGCAG”, the binding signal was 11300 fluorescence intensity (a.u.).

For the sequence “ATGTCAACTCTCTTCACTTCAATGATCGTTTAGCTCTATCCGGAGTCACCTAGTGCAG”, the binding signal was 8940 fluorescence intensity (a.u.).

Turning to “TCGAGTTATCACTATCAACTTTCGGCGCTGCCTGTTTACACGGAGTCACCTAGTGCAG”, the binding signal was 9070 fluorescence intensity (a.u.).

Regarding “GGTGTGTTTGGCAAATGAGTTATGAGAGGTGTGATTGTTACGGAGTCACCTAGTGCAG”, the binding signal was 8860 fluorescence intensity (a.u.).

Turning to “TTTGCACTATTCACATCCAACGTTTAACTATTCGTCTTATCGGAGTCACCTAGTGCAG”, the binding signal was 12200 fluorescence intensity (a.u.).

In the case of “CTCGCCTTTTGTTGACTTGGCAAACGACCCTGATCTCAAACGGAGTCACCTAGTGCAG”, the binding signal was 8850 fluorescence intensity (a.u.).

As for “GTCCGACCGCATTACTATCCGCCATGATCGGAGCCAAGCCCGGAGTCACCTAGTGCAG”, the binding signal was 8040 fluorescence intensity (a.u.).

With “TATTTTGTTAATGTCGCGTGTTGTTTGAGTGTTCTTGAAGCGGAGTCACCTAGTGCAG”, the binding signal is 11300 fluorescence intensity (a.u.).

“CTCTACTACTCTAATCCTCCATCAGTCACCATTGTATCTACGGAGTCACCTAGTGCAG”: the binding signal was 9300 fluorescence intensity (a.u.).

Turning to “TATAAGCGTTCATTCACACTCTCTTTCTAGCTCATTGCTTCGGAGTCACCTAGTGCAG”, the binding signal is 8340 fluorescence intensity (a.u.).

“GGCGGGGCGGCGGAGGTGGTGGTGGGGAGGGCGAGAGATGCGGAGTCACCTAGTGCAG”: the binding signal is 23400 fluorescence intensity (a.u.).

On to “CCGCATCCTGCCGCACTACCGTCTCCCGCCCGCCGCGAAGCGGAGTCACCTAGTGCAG”, for which the binding signal was 9390 fluorescence intensity (a.u.).

With “TATCCTTTTGTTTTGTTTTAAGACTTCTCGTGTAATCTCGCGGAGTCACCTAGTGCAG”, the binding signal is 9000 fluorescence intensity (a.u.).

Consider “ATTCGGTCATTTCGCCGCCACCACCGCCGCCGCCGTCGTGCGGAGTCACCTAGTGCAG”, for which the binding signal is 9500 fluorescence intensity (a.u.).

Consider “TCCACTGTTGCCGCTGGGGCCAATCCCTCCTTGGACTCCGCGGAGTCACCTAGTGCAG”, for which the binding signal was 8750 fluorescence intensity (a.u.).

With “TCTCTCTCTCTCTCTCTCTCTCTCTCGAATTCGCGAACACCGGAGTCACCTAGTGCAG”, the binding signal is 8540 fluorescence intensity (a.u.).

For the sequence “CGCCTGCCGCGCCGCCCTCCACCAGGTCCTCTCGCGCCACCGGAGTCACCTAGTGCAG”, the binding signal is 9660 fluorescence intensity (a.u.).

Take “TGACGCCGTTGACTTTTTTAAACATGTTTGATCGTTCGTCCGGAGTCACCTAGTGCAG”: the binding signal was 35900 fluorescence intensity (a.u.).

Consider “ACTTTTATTCTGGGGTGGAGGTAGTACAAACTTTTTTATACGGAGTCACCTAGTGCAG”, for which the binding signal was 9530 fluorescence intensity (a.u.).

Regarding “TACTACTCTCCTTTCTTTACGTGGTAGCTGGGCTGGGCTGCGGAGTCACCTAGTGCAG”, the binding signal is 9360 fluorescence intensity (a.u.).

With “GTTATTCTTGCATGCCAAGTCCTTTTCCAGGGATTGCAGACGGAGTCACCTAGTGCAG”, the binding signal is 8150 fluorescence intensity (a.u.).

For the sequence “TCGTCGTTGGTTTCTTGCCGCCTTGACCCCAACCACCAGCCGGAGTCACCTAGTGCAG”, the binding signal was 8170 fluorescence intensity (a.u.).

Consider “TGGTTTGGTTACTGGTTTAGTGCTTGAATTAATGTGGCACCGGAGTCACCTAGTGCAG”, for which the binding signal was 18400 fluorescence intensity (a.u.).

Consider “GAGTTTTTTTGTTTTGTTCTTTTGCTTTGGTTAGATAAAGCGGAGTCACCTAGTGCAG”, for which the binding signal is 8550 fluorescence intensity (a.u.).
